According to PMC4392246, “Structure of a BAG6 (Bcl-2-associated Athanogene 6)-Ubl4a (Ubiquitin-like Protein 4a) Complex Reveals a Novel Binding Interface That Functions in Tail-anchored Protein Biogenesis*” (The Journal of Biological Chemistry, 2015):
Results are given in words; binding and its absence hold for the method and conditions named. Where a sequence is shown, tags or fusion partners need not be part of it.

Protein sequences, listed by entry. Tags and fused reporters are not part of them. Residues count along the entry.
UniProt O95817, residues 421-498: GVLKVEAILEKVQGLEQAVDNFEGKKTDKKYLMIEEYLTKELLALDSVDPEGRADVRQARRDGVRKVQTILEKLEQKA

How the values were obtained:
Experiment in all cases: pull-down; GST-tagged BAG or BAGS domains on glutathione-Sepharose beads, washed with buffer B, mixed with purified Ubl4a proteins in vitro; immunoblot; both purified
[1] = molecular target: T1, GST-tagged BAG domain of BAG1 (Homo sapiens) (UniProt Q99933)
T1 sequence: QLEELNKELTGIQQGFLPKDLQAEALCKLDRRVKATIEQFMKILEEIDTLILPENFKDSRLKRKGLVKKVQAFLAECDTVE

[2] = molecular target: T2, GST-tagged BAG domain of BAG2 (Homo sapiens) (UniProt O95816)
T2 sequence: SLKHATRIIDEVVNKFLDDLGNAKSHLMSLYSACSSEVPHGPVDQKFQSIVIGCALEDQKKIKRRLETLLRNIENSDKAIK

[3] = molecular target: GST-tagged BAG domain of BAG3 (Homo sapiens) (UniProt O95817)
[4] = molecular target: T3, GST-tagged BAG domain of BAG4 (Homo sapiens) (UniProt O95429)
T3 sequence: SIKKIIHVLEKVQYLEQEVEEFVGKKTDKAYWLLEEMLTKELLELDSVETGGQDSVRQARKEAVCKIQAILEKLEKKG

[5] = molecular target: T4, GST-tagged full-length BAG1 (Homo sapiens) (UniProt Q99933)
T4 sequence: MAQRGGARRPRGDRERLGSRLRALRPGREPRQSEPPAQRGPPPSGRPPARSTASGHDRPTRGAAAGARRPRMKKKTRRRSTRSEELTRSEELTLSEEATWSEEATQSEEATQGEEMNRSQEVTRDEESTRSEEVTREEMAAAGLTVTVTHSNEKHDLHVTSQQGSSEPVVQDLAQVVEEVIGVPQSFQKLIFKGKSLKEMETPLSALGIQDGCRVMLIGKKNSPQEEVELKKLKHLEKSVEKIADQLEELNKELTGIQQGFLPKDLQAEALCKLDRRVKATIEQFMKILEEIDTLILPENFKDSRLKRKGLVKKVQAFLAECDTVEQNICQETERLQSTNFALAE

Measured: binding

B1: recombinant FLAG-tagged Ubl4a (full-length) (protein, UniProt P11441 1-157)
chain: MQLTVKALQGRECSLQVPEDELVSTLKQLVSEKLNVPVRQQRLLFKGKALADGKRLSDYSIGPNSKLNLVVKPLEKVLLEEGEAQRLADSPPPQVWQLISKVLARHFSAADASRVLEQLQRDYERSLSRLTLDDIERLASRFLHPEVTETMEKGFSK
no binding: [1] | [2] | [3] | [4] | [5]
